From the supplement of paper PMC10849652
The list shows a part of the results.

Chains of the proteins cited; added tags and fusions are not shown. Lines headed by an entry give the natural chain unless they say otherwise; changes in a name come on top.
UniProt P15529: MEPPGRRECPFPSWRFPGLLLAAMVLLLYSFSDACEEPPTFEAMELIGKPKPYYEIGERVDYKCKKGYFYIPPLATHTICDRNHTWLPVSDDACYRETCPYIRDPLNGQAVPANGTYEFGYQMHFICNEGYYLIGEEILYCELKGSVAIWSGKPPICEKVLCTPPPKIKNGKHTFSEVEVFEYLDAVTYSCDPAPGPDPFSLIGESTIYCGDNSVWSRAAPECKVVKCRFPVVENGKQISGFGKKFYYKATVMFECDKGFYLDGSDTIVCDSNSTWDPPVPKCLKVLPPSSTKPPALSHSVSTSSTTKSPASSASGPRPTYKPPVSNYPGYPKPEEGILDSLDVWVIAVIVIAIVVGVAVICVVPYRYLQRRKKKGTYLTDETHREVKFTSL
UniProt Q13185: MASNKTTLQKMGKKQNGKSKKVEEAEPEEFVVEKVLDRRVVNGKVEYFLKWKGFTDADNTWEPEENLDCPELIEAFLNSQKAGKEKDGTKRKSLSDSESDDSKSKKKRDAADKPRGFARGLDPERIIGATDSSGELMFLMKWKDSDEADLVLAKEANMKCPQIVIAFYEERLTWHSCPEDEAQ
UniProt P78371: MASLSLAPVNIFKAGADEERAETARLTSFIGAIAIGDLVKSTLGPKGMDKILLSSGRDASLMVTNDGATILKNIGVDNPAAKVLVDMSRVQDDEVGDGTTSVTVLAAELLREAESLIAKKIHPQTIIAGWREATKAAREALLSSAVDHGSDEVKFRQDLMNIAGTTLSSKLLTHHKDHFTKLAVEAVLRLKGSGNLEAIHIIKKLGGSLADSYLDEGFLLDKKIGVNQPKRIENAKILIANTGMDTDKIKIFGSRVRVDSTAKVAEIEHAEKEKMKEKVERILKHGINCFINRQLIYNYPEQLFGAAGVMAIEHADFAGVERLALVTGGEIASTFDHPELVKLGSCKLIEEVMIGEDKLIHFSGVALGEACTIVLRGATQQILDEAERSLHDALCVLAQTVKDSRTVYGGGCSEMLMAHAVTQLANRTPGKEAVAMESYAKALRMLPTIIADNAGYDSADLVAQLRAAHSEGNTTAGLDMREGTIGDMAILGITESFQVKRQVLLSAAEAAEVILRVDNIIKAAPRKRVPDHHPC
UniProt P42574: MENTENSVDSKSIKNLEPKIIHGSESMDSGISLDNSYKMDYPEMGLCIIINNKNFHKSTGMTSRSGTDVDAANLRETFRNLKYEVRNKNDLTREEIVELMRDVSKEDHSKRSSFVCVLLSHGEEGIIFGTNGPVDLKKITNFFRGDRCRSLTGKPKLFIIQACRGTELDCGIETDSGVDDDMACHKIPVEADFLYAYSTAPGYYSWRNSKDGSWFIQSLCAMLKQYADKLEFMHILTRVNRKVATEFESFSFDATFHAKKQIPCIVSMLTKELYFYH
UniProt Q4VC31: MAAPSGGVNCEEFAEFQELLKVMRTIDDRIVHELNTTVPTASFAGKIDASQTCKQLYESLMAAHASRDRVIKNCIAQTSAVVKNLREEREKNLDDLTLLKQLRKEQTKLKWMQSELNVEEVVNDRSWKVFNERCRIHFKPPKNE
UniProt Q08722, whole entry, looked up: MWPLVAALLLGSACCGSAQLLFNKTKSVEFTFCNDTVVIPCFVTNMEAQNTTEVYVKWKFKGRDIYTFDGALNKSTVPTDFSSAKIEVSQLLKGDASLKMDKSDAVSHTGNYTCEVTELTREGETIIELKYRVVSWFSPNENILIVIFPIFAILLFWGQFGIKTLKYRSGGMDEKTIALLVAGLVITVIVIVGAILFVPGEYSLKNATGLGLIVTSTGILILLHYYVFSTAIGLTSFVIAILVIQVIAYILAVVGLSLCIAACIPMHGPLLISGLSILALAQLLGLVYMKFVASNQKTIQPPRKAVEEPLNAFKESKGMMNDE
UniProt Q8WUD4: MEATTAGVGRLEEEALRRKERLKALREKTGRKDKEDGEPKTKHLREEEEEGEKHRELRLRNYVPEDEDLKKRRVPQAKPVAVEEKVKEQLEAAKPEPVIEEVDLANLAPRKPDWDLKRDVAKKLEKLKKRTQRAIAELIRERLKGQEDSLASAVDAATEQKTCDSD
UniProt Q9P219: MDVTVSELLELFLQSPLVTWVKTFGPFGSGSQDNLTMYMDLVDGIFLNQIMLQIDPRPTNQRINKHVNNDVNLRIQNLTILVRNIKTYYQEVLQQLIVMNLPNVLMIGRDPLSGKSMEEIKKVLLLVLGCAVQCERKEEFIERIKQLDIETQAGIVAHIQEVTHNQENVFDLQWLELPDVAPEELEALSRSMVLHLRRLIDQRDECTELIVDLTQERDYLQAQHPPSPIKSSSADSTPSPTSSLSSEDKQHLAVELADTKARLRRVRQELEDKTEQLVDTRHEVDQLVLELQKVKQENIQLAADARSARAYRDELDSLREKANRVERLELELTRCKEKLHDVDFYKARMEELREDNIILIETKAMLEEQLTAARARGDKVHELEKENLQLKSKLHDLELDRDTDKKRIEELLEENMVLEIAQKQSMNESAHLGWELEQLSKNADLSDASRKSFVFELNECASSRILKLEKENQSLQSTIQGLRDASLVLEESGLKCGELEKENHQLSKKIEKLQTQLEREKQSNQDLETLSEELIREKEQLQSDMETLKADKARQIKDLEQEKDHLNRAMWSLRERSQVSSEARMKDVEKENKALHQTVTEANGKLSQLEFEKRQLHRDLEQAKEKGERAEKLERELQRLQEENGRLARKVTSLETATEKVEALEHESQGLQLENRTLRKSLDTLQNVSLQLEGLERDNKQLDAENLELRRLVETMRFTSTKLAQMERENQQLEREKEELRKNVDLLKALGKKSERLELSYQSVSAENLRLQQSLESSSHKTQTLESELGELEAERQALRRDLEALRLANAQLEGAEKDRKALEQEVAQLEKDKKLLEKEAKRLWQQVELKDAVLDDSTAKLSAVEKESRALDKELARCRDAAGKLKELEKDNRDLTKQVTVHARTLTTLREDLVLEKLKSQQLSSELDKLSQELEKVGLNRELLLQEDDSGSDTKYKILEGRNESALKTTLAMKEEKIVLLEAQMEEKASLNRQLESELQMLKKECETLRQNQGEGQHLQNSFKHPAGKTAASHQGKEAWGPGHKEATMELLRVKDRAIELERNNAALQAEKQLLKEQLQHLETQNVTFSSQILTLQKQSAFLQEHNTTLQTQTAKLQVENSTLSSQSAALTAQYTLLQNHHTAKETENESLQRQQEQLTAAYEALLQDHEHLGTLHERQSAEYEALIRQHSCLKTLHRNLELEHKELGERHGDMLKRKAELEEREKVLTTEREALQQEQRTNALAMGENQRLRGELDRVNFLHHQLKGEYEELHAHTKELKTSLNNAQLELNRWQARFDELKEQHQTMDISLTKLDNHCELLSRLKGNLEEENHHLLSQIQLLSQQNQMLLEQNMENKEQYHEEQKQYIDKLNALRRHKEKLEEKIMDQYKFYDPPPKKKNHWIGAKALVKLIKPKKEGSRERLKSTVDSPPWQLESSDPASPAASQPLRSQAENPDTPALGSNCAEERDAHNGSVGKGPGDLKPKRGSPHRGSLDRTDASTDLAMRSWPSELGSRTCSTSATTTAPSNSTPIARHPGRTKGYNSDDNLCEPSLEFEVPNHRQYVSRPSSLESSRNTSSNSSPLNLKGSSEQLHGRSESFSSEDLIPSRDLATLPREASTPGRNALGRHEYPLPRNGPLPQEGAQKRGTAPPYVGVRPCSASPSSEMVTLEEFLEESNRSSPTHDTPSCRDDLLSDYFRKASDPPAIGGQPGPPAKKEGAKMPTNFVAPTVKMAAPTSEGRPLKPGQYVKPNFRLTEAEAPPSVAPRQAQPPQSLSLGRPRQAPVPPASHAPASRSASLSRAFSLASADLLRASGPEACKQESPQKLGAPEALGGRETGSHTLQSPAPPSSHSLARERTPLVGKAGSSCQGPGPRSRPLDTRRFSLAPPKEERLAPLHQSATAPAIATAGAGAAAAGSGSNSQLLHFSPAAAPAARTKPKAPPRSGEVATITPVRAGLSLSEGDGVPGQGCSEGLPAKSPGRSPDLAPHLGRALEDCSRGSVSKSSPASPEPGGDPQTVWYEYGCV
UniProt Q8N7R7: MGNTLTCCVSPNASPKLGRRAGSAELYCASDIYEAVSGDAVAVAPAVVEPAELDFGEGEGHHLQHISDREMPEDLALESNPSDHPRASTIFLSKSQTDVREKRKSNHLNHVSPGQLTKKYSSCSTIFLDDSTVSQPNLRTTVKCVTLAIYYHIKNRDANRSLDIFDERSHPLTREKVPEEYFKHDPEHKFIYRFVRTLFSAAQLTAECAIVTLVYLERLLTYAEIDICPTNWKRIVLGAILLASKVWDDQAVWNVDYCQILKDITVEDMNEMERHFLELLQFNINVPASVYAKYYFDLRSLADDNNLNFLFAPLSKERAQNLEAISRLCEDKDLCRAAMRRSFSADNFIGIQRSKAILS
UniProt Q13191, whole entry, looked up: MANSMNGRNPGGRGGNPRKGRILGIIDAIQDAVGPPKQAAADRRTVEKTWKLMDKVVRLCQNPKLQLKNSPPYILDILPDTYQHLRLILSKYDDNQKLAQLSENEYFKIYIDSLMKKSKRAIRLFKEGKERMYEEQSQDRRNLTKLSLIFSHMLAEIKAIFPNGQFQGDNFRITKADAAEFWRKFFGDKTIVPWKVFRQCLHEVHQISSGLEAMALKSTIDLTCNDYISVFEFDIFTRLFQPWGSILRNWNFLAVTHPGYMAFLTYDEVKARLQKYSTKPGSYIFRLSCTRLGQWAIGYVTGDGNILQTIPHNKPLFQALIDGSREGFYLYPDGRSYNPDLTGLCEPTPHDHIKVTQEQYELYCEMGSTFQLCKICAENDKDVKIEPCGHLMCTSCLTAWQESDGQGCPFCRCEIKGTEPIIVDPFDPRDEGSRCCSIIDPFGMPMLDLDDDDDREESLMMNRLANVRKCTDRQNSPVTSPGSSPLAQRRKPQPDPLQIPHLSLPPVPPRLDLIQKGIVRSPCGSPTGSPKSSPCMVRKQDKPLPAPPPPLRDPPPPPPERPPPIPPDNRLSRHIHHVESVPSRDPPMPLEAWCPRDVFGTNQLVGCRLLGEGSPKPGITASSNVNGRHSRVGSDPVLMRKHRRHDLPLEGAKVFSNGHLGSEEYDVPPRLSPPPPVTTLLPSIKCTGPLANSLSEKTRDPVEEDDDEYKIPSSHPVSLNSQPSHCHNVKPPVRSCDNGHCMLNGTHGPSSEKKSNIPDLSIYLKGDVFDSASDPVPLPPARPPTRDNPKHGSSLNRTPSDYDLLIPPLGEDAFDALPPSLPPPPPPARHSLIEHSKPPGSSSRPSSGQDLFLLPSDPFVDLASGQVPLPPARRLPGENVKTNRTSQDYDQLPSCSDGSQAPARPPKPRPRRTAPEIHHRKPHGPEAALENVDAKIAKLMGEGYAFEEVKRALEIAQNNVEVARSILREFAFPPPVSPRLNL
UniProt Q9HA77: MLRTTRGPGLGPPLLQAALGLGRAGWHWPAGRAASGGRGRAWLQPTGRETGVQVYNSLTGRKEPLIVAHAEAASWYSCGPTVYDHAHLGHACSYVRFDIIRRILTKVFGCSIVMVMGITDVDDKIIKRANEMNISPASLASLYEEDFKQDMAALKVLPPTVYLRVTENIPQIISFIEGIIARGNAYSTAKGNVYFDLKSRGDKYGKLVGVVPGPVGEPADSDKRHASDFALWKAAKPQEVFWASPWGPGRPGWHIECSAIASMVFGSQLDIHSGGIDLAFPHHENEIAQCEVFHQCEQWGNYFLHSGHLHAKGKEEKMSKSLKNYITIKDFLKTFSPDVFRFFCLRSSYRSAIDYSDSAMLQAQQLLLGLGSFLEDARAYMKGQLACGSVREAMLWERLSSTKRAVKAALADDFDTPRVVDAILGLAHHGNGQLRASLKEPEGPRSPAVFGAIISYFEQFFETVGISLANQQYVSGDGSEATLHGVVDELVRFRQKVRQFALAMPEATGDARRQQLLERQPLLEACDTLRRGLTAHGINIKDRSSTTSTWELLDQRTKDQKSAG
UniProt O95273: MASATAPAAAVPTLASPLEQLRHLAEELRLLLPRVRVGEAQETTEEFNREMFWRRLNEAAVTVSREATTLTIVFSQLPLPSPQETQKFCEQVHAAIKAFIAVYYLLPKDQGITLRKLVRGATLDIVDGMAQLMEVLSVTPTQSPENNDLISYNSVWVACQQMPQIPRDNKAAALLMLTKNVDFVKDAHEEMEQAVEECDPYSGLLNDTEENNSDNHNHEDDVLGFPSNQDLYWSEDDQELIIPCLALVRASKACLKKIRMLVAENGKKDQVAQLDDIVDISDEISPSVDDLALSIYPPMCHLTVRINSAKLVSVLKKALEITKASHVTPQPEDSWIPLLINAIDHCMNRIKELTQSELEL
UniProt Q9Y2V2: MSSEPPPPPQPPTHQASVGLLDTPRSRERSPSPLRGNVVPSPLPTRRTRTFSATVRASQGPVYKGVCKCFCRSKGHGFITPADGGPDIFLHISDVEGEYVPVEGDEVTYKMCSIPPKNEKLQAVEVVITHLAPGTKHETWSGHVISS

compound: NC1(c2ccc(-c3nc4ccn5c(=O)[nH]nc5c4cc3-c3ccccc3)cc2)CCC1; assay: log2 fold change, soluble protein after heating vs DMSO (PISA); higher = thermal stabilisation; K562 lysate, 10 uM; active = over 0.2 and 3.5 SD of the protein, either way, in both replicates (recomputed)
Procedure, shortened: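 To prepare the extract, K562 pellets were dounce-homogenised in PBS pH 7.4 with 1 mM MgCl2, giving crude material at 1 mg/mL protein. This was treated with 10 μM compound for 30 min, then heated in aliquots for 3 min over 48°C-58°C before pooling and addition of NP-40 to 0.5% at 4°C. Centrifugation at 21,000xg for 90 min left soluble protein in the supernatant, which TMTpro 16plex LC-MS/MS quantified with equalised channel sums. Results are log-two fold changes in thermal stability compared with solvent controls, from duplicates.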

log2 fold change, inactive:
CD46 isoform 2 (UniProt P15529) 0.014
CCNB2 (UniProt O95067) 0
CBX3 (UniProt Q13185) 0.034
CCT2 (UniProt P78371) -0.037
CASP3 (UniProt P42574) 0.022
CCNB1 (UniProt P14635) 0.006
CAT (UniProt P04040) 0.02
CCT6A (UniProt P40227) 0.005
CASP9 (UniProt P55211) 0.007
CCDC58 (UniProt Q4VC31) -0.001
CD47 (UniProt Q08722) 0.018
CCNK isoform 4 (UniProt O75909) -0.011
CCDC12 (UniProt Q8WUD4) -0.012
CCDC93 (UniProt Q567U6) 0.019
CBX4 (UniProt O00257) -0.074
CCDC25 (UniProt Q86WR0) -0.031
CCDC88A (UniProt Q3V6T2) 0.014
CCDC88C (UniProt Q9P219) 0.327
CCDC22 (UniProt O60826) -0.017
CCDC97 (UniProt Q96F63) -0.008
CCNYL1 (UniProt Q8N7R7) -0.006
CBLB (UniProt Q13191) 0.028
CAVIN1 (UniProt Q6NZI2) -0.028
CBWD5 (UniProt Q5RIA9) 0.019
CARS2 (UniProt Q9HA77) 0.009
CCAR1 (UniProt Q8IX12) 0.018
CCNDBP1 (UniProt O95273) 0.014
CCS (UniProt O14618) 0.059
CD151 (UniProt P48509) -0.019
CCDC6 (UniProt Q16204) 0.017
CCDC117 (UniProt Q8IWD4) -0.01
CCT5 (UniProt P48643) 0.017
CARHSP1 (UniProt Q9Y2V2) -0.001

Quoted from above (7 entries):
log2 fold change, inactive:
CCAR1 (UniProt Q8IX12) 0.018
CCNDBP1 (UniProt O95273) 0.014
CCS (UniProt O14618) 0.059
CD151 (UniProt P48509) -0.019
CCDC6 (UniProt Q16204) 0.017
CCDC117 (UniProt Q8IWD4) -0.01
CCT5 (UniProt P48643) 0.017
